{"source": "patent US20140038203A1", "about": "“METHODS FOR DETECTING OR PREDICTING KIDNEY DISEASE” (MUSC FOUNDATION FOR RESEARCH DEVELOPMENT, priority 2012, published 2014)", "assay": "RRT study: LC-MS/MS urinary proteomics, AKI after cardiac surgery, RRT vs No RRT", "set-up": "species or system human", "conditions": "patients who did vs did not require RRT/dialysis; for Up or Down: direction of urinary abundance; for Mean Fold Change: read with the Up or Down column"}
{"molecule": "Serine protease inhibitor Kazal-type 5 (protein, UniProt Q9NQ38 23-1064, looked up) Serine protease inhibitor …: KNEDQEMCHEFQAFMKNGKLFCPQDKKFFQSLDGIMFINKCATCKMILEKEAKSQKRARHLARAPKATAPTELNCDDFKKGERDGDFICPDYYEAVCGTDGKTYDNRCALCAENAKTGSQIGVKSEGECKSSNPEQDVCSAFRPFVRDGRLGCTRENDPVLGPDGKTHGNKCAMCAELFLKEAENAKREGETRIRRNAEKDFCKEYEKQVRNGRLFCTRESDPVRGPDGRMHGNKCALCAEIFKQRFSEENSKTDQNLGKAEEKTKVKREIVKLCSQYQNQAKNGILFCTRENDPIRGPDGKMHGNLCSMCQAYFQAENEEKKKAEARARNKRESGKATSYAELCSEYRKLVRNGKLACTRENDPIQGPDGKVHGNTCSMCEVFFQAEEEEKKKKEGKSRNKRQSKSTASFEELCSEYRKSRKNGRLFCTRENDPIQGPDGKMHGNTCSMCEAFFQQEERARAKAKREAAKEICSEFRDQVRNGTLICTREHNPVRGPDGKMHGNKCAMCASVFKLEEEEKKNDKEEKGKVEAEKVKREAVQELCSEYRHYVRNGRLPCTRENDPIEGLDGKIHGNTCSMCEAFFQQEAKEKERAEPRAKVKREAEKETCDEFRRLLQNGKLFCTRENDPVRGPDGKTHGNKCAMCKAVFQKENEERKRKEEEDQRNAAGHGSSGGGGGNTQDECAEYREQMKNGRLSCTRESDPVRDADGKSYNNQCTMCKAKLEREAERKNEYSRSRSNGTGSESGKDTCDEFRSQMKNGKLICTRESDPVRGPDGKTHGNKCTMCKEKLEREAAEKKKKEDEDRSNTGERSNTGERSNDKEDLCREFRSMQRNGKLICTRENNPVRGPYGKMHINKCAMCQSIFDREANERKKKDEEKSSSKPSNNAKDECSEFRNYIRNNELICPRENDPVHGADGKFYTNKCYMCRAVFLTEALERAKLQEKPSHVRASQEEDSPDSFSSLDSEMCKDYRVLPRIGYLCPKDLKPVCGDDGQTYNNPCMLCHENLIRQTNTHIRSTGKCEESSTPGTTAASMPPSDE", "values": [{"measurement": "Up or Down", "result": "Up"}, {"measurement": "Mean Fold Change", "result": 7.462}]}
{"molecule": "Afamin (protein, UniProt P43652 22-599, looked up) Afamin: LPTQPRDIENFNSTQKFIEDNIEYITIIAFAQYVQEATFEEMEKLVKDMVEYKDRCMADKTLPECSKLPNNVLQEKICAMEGLPQKHNFSHCCSKVDAQRRLCFFYNKKSDVGFLPPFPTLDPEEKCQAYESNRESLLNHFLYEVARRNPFVFAPTLLTVAVHFEEVAKSCCEEQNKVNCLQTRAIPVTQYLKAFSSYQKHVCGALLKFGTKVVHFIYIAILSQKFPKIEFKELISLVEDVSSNYDGCCEGDVVQCIRDTSKVMNHICSKQDSISSKIKECCEKKIPERGQCIINSNKDDRPKDLSLREGKFTDSENVCQERDADPDTFFAKFTFEYSRRHPDLSIPELLRIVQIYKDLLRNCCNTENPPGCYRYAEDKFNETTEKSLKMVQQECKHFQNLGKDGLKYHYLIRLTKIAPQLSTEELVSLGEKMVTAFTTCCTLSEEFACVDNLADLVFGELCGVNENRTINPAVDHCCKTNFAFRRPCFESLKADKTYVPPPFSQDLFTFHADMCQSQNEELQRKTDRFLVNLVKLKHELTDEELQSLFTNFANVVDKCCKAESPEVCFNEESPKIGN", "values": [{"measurement": "Up or Down", "result": "Up"}, {"measurement": "Mean Fold Change", "result": 15.38}]}
{"molecule": "Alpha-2-HS-glycoprotein (protein, UniProt P02765 19-300; P02765 341-367, looked up) Alpha-2-HS-glycoprotein chain … 1: APHGPGLIYRQPNCDDPETEEAALVAIDYINQNLPWGYKHTLNQIDEVKVWPQQPSGELFEIEIDTLETTCHVLDPTPVARCSVRQLKEHAVEGDCDFQLLKLDGKFSVVYAKCDSSPDSAEDVRKVCQDCPLLAPLNDTRVVHAAKAALAAFNAQNNGSNFQLEEISRAQLVPLPPSTYVEFTVSGTDCVAKEATEAAKCNLLAEKQYGFCKATLSEKLGGAEVAVTCMVFQTQPVSSQPQPEGANEAVPTPVVDPDAPPSPPLGAPGLPPAGSPPDSHVL Alpha-2-HS-glycoprotein chain … 2: TVVQPSVGAAAGPVVPPCPGRIRHFKV", "values": [{"measurement": "Up or Down", "result": "Up"}, {"measurement": "Mean Fold Change", "result": 1.891}]}
